Results as given in paper PMC4245974.
Results are given in words; binding and its absence hold for the method and conditions named. Binding seen in cells or lysates may run through a third protein. Some entries that bind do so weakly or less than the wild type.

Protein sequences, listed by entry. Tags and fused reporters are not part of them. Lines headed by an entry give the natural chain unless they say otherwise; changes in a name come on top. Residues count along the entry.
UniProt Q9HAW4: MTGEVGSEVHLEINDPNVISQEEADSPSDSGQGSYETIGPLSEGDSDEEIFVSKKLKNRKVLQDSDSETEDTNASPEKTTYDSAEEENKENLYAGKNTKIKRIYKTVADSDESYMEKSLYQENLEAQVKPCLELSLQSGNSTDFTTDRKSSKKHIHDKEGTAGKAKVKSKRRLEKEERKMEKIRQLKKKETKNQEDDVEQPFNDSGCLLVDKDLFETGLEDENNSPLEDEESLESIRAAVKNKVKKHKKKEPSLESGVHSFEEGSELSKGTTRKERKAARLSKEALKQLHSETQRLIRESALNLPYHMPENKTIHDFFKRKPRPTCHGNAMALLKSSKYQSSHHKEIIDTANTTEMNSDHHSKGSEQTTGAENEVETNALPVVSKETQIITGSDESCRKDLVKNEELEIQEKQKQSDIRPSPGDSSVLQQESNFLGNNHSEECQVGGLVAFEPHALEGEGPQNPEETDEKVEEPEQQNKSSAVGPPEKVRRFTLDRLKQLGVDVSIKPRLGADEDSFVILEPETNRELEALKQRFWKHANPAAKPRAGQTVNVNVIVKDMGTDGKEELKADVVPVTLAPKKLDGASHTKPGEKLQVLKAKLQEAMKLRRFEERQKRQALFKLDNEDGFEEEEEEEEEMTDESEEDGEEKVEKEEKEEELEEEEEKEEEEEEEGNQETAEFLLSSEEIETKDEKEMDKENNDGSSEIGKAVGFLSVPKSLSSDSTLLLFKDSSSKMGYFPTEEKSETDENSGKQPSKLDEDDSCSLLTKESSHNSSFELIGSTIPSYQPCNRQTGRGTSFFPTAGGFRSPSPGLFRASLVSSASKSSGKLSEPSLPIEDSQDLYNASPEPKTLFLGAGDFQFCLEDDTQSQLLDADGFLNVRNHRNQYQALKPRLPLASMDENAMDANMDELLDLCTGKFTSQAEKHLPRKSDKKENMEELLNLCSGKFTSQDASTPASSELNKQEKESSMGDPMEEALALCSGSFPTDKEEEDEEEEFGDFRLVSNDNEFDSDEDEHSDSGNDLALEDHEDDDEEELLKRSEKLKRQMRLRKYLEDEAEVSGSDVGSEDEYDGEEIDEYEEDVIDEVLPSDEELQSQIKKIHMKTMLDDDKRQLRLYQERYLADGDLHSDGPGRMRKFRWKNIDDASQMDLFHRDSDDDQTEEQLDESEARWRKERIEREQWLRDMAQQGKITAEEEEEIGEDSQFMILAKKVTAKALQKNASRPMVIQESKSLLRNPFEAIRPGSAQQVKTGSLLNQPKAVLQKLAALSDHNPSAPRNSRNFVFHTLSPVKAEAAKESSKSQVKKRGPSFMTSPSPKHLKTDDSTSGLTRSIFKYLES
FLAG-CLASPIN N-terminus (1-330 AAs): residues 1-330 of Q9HAW4
UniProt O95714: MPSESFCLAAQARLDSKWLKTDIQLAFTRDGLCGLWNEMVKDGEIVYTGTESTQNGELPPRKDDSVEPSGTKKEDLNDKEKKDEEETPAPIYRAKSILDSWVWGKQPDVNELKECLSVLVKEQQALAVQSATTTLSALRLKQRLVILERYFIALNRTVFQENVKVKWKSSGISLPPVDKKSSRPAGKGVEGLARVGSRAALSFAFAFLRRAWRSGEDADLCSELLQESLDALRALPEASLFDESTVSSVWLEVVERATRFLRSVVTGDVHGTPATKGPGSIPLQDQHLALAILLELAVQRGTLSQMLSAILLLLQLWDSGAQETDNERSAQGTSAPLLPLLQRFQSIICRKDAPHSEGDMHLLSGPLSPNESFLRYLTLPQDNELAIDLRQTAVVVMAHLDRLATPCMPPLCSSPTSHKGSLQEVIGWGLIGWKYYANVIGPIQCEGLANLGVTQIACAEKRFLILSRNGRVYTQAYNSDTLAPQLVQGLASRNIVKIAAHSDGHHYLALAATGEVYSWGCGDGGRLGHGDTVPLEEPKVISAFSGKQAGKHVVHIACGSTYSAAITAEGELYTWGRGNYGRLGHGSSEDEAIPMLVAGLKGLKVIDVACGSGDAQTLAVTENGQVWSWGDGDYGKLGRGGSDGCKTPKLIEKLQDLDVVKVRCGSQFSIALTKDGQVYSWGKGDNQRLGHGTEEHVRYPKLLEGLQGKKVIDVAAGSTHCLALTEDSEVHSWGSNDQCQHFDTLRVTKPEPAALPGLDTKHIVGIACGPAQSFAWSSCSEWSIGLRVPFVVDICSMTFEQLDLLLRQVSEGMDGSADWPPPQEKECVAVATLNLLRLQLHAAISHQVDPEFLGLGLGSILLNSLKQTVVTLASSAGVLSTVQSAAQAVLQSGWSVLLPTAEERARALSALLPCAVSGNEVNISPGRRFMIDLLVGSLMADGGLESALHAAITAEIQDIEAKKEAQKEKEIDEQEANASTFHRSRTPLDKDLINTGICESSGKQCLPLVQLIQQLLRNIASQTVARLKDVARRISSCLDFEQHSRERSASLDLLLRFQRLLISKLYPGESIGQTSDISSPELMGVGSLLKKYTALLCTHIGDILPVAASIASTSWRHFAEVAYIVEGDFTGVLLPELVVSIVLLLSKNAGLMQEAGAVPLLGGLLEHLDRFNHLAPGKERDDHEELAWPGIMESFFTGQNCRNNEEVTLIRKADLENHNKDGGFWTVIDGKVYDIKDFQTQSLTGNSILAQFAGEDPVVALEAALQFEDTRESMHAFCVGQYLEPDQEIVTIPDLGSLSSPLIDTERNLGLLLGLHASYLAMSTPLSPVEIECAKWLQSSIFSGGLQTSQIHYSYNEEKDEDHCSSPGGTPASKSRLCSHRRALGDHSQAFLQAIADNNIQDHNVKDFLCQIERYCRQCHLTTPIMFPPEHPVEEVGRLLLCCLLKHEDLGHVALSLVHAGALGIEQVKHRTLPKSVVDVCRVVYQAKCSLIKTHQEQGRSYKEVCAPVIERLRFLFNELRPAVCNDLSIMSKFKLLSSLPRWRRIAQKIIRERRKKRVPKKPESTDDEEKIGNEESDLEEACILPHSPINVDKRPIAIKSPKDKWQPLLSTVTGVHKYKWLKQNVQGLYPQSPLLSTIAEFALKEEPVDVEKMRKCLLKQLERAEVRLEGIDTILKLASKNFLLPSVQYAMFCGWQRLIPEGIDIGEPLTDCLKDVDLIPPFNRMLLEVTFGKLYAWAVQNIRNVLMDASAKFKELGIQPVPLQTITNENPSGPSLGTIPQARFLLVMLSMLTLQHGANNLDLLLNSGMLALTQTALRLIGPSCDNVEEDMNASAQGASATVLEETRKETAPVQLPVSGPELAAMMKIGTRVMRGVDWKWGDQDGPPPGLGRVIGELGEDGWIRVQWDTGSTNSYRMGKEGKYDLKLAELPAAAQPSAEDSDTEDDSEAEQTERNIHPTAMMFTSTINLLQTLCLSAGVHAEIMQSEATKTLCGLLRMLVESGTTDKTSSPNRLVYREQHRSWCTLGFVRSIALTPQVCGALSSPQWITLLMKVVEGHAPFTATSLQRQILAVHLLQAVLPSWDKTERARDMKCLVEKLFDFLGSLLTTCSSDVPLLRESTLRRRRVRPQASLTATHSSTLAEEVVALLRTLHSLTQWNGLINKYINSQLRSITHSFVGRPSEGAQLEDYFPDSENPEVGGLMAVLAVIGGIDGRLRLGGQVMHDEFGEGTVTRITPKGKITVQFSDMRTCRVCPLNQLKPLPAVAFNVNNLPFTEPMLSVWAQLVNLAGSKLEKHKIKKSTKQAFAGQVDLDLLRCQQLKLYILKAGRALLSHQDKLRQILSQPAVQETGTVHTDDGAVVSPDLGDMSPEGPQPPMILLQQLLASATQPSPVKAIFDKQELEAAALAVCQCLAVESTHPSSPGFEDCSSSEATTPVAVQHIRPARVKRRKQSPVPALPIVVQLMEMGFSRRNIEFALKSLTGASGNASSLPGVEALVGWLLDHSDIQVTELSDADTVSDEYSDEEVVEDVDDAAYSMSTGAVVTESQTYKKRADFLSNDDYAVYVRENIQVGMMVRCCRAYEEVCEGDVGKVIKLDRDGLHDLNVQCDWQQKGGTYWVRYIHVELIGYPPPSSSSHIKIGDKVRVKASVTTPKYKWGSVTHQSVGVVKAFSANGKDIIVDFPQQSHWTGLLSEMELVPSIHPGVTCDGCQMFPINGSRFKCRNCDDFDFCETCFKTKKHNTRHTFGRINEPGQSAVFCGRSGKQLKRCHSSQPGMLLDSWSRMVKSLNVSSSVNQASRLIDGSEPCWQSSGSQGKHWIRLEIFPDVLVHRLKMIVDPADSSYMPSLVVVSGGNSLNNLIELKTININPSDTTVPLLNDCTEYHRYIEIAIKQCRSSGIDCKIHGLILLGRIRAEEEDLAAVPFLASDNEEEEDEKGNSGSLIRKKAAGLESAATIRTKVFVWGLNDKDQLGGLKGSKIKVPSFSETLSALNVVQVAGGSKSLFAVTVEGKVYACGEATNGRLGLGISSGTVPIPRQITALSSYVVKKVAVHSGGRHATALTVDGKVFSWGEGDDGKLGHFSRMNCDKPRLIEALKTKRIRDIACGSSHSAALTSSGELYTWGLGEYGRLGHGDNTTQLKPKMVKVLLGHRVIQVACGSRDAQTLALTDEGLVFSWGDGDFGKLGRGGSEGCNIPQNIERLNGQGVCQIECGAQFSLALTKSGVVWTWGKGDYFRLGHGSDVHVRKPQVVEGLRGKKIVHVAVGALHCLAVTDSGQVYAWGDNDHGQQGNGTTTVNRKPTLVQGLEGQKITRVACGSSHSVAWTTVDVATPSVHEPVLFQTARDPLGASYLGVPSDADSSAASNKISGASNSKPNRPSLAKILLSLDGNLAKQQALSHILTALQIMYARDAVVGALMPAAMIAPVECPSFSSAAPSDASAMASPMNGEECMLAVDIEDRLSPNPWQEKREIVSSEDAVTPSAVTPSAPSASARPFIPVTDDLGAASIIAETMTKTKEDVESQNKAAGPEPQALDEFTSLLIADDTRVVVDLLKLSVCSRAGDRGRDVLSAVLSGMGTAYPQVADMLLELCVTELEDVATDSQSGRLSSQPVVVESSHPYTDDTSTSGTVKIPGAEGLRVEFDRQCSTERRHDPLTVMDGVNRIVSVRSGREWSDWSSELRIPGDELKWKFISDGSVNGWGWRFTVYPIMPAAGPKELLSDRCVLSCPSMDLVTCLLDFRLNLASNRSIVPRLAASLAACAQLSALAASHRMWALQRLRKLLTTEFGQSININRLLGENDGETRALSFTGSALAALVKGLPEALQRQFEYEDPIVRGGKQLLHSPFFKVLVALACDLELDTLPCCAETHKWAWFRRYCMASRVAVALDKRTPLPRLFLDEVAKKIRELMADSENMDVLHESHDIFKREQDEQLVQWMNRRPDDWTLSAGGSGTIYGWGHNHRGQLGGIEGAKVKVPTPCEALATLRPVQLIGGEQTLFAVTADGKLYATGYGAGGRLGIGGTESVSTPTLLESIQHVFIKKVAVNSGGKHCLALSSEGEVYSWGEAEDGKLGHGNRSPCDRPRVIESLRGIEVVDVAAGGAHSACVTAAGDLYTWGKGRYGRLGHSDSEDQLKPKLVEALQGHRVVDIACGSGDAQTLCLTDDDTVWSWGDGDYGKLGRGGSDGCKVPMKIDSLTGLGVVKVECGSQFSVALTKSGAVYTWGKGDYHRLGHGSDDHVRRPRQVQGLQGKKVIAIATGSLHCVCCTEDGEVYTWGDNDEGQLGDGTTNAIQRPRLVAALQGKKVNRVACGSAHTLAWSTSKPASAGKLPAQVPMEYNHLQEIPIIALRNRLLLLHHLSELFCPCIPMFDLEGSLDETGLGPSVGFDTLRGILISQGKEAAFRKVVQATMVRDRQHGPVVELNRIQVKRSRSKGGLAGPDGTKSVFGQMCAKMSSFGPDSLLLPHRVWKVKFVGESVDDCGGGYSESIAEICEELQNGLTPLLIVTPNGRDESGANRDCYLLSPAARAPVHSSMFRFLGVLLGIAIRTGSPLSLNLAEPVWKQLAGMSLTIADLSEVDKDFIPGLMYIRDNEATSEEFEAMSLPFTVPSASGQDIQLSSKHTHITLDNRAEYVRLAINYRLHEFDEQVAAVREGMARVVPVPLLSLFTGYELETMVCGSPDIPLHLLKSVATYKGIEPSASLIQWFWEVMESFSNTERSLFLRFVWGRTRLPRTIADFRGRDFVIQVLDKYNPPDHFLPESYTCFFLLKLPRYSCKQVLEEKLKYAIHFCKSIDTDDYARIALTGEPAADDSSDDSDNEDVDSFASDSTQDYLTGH

What was measured:
[1] = target: USP20 (endogenous) (human (endogenous in 293T)) (UniProt Q9Y2K6); assay: co-IP; total lysates of 293T cells, endogenous proteins; immunoprecipitation with anti-USP20, anti-HERC2 or anti-ATR antibody, immunoblotting; for HERC2-USP20 also mock or HU (2 mM) treatment for 3 h
[2] = target: FLAG-USP20 (UniProt Q9Y2K6); assay: co-IP; 293T cells expressing FLAG-USP20 or FLAG-USP20(4SA), treated with HU for 3 h or not; FLAG-USP20 immunocomplex blotted for HERC2
[3] = target: FLAG-CLASPIN N-terminus (1-330 AAs) (UniProt Q9HAW4); assay: co-IP; lysates of 293T cells co-transfected with MYC-USP20 and FLAG-CLASPIN or its fragments; anti-FLAG immunoprecipitation, anti-MYC immunoblot
[4] = target: FLAG-CLASPIN (UniProt Q9HAW4); assay: as above
[5] = target: HERC2 (endogenous) (human (endogenous in 293T)) (UniProt O95714); assay: co-IP; total lysates of 293T cells, endogenous proteins; immunoprecipitation with anti-USP20, anti-HERC2 or anti-ATR antibody, immunoblotting; for HERC2-USP20 also mock or HU (2 mM) treatment for 3 h
[6] = target: ATR (ataxia telangiectasia and Rad3-related protein) (human (endogenous in 293T)) (UniProt Q13535); assay: as above

| binding [1] | binding [5] | Substance | also measured |
| --- | --- | --- | --- |
| binds | – | HERC2 (endogenous) (from UniProt O95714 1-4834) (enzyme) | binding [2]: binds |
| – | – | MYC-USP20 (from UniProt Q9Y2K6 1-914) (enzyme) | binding [3]: binds; binding [4]: binds |
| binds | binds | CLASPIN (endogenous) (from UniProt Q9HAW4 1-1339) | – |
| – | binds | USP20 (endogenous) (from UniProt Q9Y2K6 1-914) (enzyme) | binding [6]: binds |
